Not every entry of the source has a single result; some have several. They are shown here; other results are not. The source may hold further records. Values given together do not match, cause unknown; dose, time, organism, isomer or construct need not be as stated for each record.
Molecular target: APE1 (Homo sapiens, UniProt P27695)
Assay: APE1 fluorescent oligonucleotide activity assay (abasic site substrate)
Type: biochemical
Details: 25 µM; Supplementary Fig. 6b, replicates 1-3

The chains behind the UniProt entries cited, without tags or fusion partners.
UniProt P27695, whole entry: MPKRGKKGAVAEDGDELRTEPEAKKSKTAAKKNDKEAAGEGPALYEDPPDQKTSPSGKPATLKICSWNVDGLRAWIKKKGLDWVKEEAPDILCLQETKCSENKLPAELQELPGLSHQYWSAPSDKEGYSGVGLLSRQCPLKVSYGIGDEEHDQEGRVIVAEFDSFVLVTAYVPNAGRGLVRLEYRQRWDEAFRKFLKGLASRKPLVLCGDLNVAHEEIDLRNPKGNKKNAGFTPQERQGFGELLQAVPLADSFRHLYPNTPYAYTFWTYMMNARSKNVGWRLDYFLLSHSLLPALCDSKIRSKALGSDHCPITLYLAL

CCn1c2ccccc2c2cc(/C=N\Nc3cc(C)nc4cc5c(cc34)OCO5)ccc21
Percent APE1 activity, replicates: 0.4024%, 0.4746%, -0.4799%

Reference: paper PMC11078990, “Identification and characterization of small molecule inhibitors of the LINE-1 retrotransposon endonuclease” (Nature Communications, 2024)
